Some of the results follow.

Amino acid sequences for entries named in this document (tags omitted).
UniProt Q0JBA9, entry or part of it: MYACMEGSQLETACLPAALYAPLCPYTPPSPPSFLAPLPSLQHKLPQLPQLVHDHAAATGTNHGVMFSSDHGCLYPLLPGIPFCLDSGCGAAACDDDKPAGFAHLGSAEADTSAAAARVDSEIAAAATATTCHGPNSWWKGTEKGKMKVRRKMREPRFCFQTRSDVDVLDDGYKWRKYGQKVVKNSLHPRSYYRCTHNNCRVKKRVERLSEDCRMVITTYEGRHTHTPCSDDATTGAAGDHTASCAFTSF

The target in this test is OsWRKY34 (Oryza sativa, UniProt Q0JBA9 1-250). The test is described as follows: protein-binding microarray (RPBM); PBS, 2% BSA, 51.3 ng/ul salmon testes DNA, 50 uM zinc acetate, 200 nM TF, 25 C, 1 h; high values mean tight binding. The conditions noted are these: protein: recombinant; tags: N-terminal polyhistidine and DsRed monomer fusion (pET32a); label: CyDye5-dUTP incorporated in the synthesized complementary strand; 3' TTTTT single-stranded linker to array surface; dsDNA, one strand shown. An outline of the steps:
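Binding signal here means per-feature fluorescence intensity in arbitrary units. The values were read on an Axon 4000B scanner after a custom Agilent array, double-stranded by primer extension with Cy5-dUTP, was incubated with 200 nM protein at 25 °C for 1 h in PBS with 2% BSA, salmon testes DNA and 50 µM zinc acetate, then washed. The proteins were transcription factors with an N-terminal polyhistidine tag and DsRed, expressed in E. coli BL21-CodonPlus and purified on Ni–NTA.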
In the case of “GCACTCCCTTCCGATTGTACTTGTGCTTGTAGTAATTCTTCGGAGTCACCTAGTGCAG”, the binding signal is 9560 fluorescence intensity (a.u.). As for “TCTCTCTTGCATACTGACAAGCAGAAATCCCCTTAATACACGGAGTCACCTAGTGCAG”, the figure is 9080 fluorescence intensity (a.u.); as for “CTCTCCGCCGCTCCCCGTTGCTACGACCGGCTGCCTCGTCCGGAGTCACCTAGTGCAG”, 8480 fluorescence intensity (a.u.); as for “GCCCACCCAGCTTCATCGGATCCGGCACGCGGCGACAATGCGGAGTCACCTAGTGCAG”, 8670 fluorescence intensity (a.u.). As to “CTCCACTGCCACTTCACTGATCGAGCTCACCTTTTCCTCTCGGAGTCACCTAGTGCAG”, the binding signal is 10400 fluorescence intensity (a.u.). As to “GTATGTCCATCTATCTCGCCGCCGCCGCCATTTTTGTTTCCGGAGTCACCTAGTGCAG”, the binding signal was 12300 fluorescence intensity (a.u.). In the case of “ACGTATTGTGCCAAGGTACTGTTCATGATGTATTGTATTACGGAGTCACCTAGTGCAG” it was 8040 fluorescence intensity (a.u.). On to “TAGTCCGTTCTGTTGTCATCTACTACTCTTGTTTGTGTTTCGGAGTCACCTAGTGCAG”, for which the binding signal is 16100 fluorescence intensity (a.u.). In the case of “AAATAGCAGAACAAAAATATGTCACCTTTTTGCAACTTTCCGGAGTCACCTAGTGCAG” it was 9690 fluorescence intensity (a.u.). As for “ATTATTCGTTTGCAAATATAATGTTTAGCTTATTCCCGAACGGAGTCACCTAGTGCAG”, the figure is 8160 fluorescence intensity (a.u.); as for “GCTTATGGGTCTCTTTACAGCTCTCGGGGCTATCGATTGACGGAGTCACCTAGTGCAG”, 9150 fluorescence intensity (a.u.). In the case of “ACAGGGTGTAGGGGCGTCTCAGGAGGCTATGCCTCTCCCACGGAGTCACCTAGTGCAG” it was 8450 fluorescence intensity (a.u.); in that of “CTTTGCATTTCATCTCGGTAGAACACCTGCCTAGCTTTCACGGAGTCACCTAGTGCAG”, 11600 fluorescence intensity (a.u.); in that of “ATCCCCACCGTTGACCGAAGTTGACCTCCAAGAATCCTGACGGAGTCACCTAGTGCAG”, 13800 fluorescence intensity (a.u.). Regarding “GCTCTATCACTTCCATTTCAGTCCATTTAGCTTTCGGGCCCGGAGTCACCTAGTGCAG”, the binding signal is 9090 fluorescence intensity (a.u.).

Consider “ATCGTATTTTCAGCCCATGGTTGCGCGTAGTTTCGGCCCACGGAGTCACCTAGTGCAG”, for which the binding signal was 8670 fluorescence intensity (a.u.).

“CACCCGCTCCCCTCCACTCGCAGACCCAACCCCTATAAATCGGAGTCACCTAGTGCAG”: the binding signal is 8280 fluorescence intensity (a.u.). As for “CTTTTTTTTGGTCAAAATCCTTTAGGTTTTATCAAATTTACGGAGTCACCTAGTGCAG”, the figure is 8410 fluorescence intensity (a.u.); as for “TCTCCTCTTCTTTTTCTTCCTTCCTTTTACTCGCTCGCTCCGGAGTCACCTAGTGCAG”, 9930 fluorescence intensity (a.u.). As for “GCCATGATGATTCCTTACCGCTGGGTGGGGCCCACACGTCCGGAGTCACCTAGTGCAG”, the figure is 10200 fluorescence intensity (a.u.); as for “CTCATCTTAAATTCTTGGTTGTGTTCGTTATTCCAGATTGCGGAGTCACCTAGTGCAG”, 9080 fluorescence intensity (a.u.); as for “TTCTAAATAGTTTATGGAATTCACACACACGTTCTCTCTACGGAGTCACCTAGTGCAG”, 9410 fluorescence intensity (a.u.). In the case of “CAGTCTCCTCTGATGCAGTCTCGTTCTCTGTTTCTTTTTGCGGAGTCACCTAGTGCAG” it was 10600 fluorescence intensity (a.u.); in that of “ACCCACCCACCCACCCGGTCTGTCTCCTAACCCCGGTCGCCGGAGTCACCTAGTGCAG”, 12600 fluorescence intensity (a.u.); in that of “TGCACACATGATGCACATGTCGCGCGCGCTGCCTCGCCACCGGAGTCACCTAGTGCAG”, 8950 fluorescence intensity (a.u.).

On to “CCTCACTCGATGCCACTCTTCTCTGACCTCTATCATCAGACGGAGTCACCTAGTGCAG”, for which the binding signal was 8530 fluorescence intensity (a.u.). As for “TGACATTGGCGCCATCCTTCATTGACTTGACGACCGCCATCGGAGTCACCTAGTGCAG”, the figure is 11200 fluorescence intensity (a.u.); as for “TATTGATGTATATTACTCCCACCTTTTTAAATATTTGACACGGAGTCACCTAGTGCAG”, 8990 fluorescence intensity (a.u.). Consider “CGCTCTCTCTCTCCCATCTTGTGTCTCTTTCTTGTTTACTCGGAGTCACCTAGTGCAG”, for which the binding signal was 10400 fluorescence intensity (a.u.). Turning to “ATATATCCTCCCTTGCGGTGCCTTGGCAGTTTTCTCGATTCGGAGTCACCTAGTGCAG”, the binding signal is 9280 fluorescence intensity (a.u.).

For the sequence “TCCGTCTCCAATGACTCCCGATTCCTTTCTGTAATCTAATCGGAGTCACCTAGTGCAG”, the binding signal was 8240 fluorescence intensity (a.u.). Turning to “GCATCTCCATGGTCTCCTTGTCGACGCGGATCTCCTCCACCGGAGTCACCTAGTGCAG”, the binding signal was 11000 fluorescence intensity (a.u.). In the case of “CGCCTACGACTCTCTACATCTCTCCACCTGCATTACTACGCGGAGTCACCTAGTGCAG” it was 10100 fluorescence intensity (a.u.); in that of “CAGTGATGTTTTTGTGCTTAAAGAATGTACTTGGCCCAATCGGAGTCACCTAGTGCAG”, 8210 fluorescence intensity (a.u.). As for “CCTATACTTGCTCATAGCCTCGTCTCCTTCCTCTATTACTCGGAGTCACCTAGTGCAG”, the figure is 8880 fluorescence intensity (a.u.). In the case of “TGCATTGACTTTCGGCGGCGCGTTGCAGATCCTGGTTCTTCGGAGTCACCTAGTGCAG” it was 11500 fluorescence intensity (a.u.). For “GTGTGCGTCTCTCTCTGTCTCACTCTCTGTGTGAGTGCGACGGAGTCACCTAGTGCAG”, the binding signal is 8980 fluorescence intensity (a.u.). Turning to “TTCCTCTTCTCTTCCGCGCCATTTCTTGATCCCCGTCATGCGGAGTCACCTAGTGCAG”, the binding signal was 8420 fluorescence intensity (a.u.). As for “GACCTCGTGCGCTCCCACCACCACCACCCCGCGGCTTCGCCGGAGTCACCTAGTGCAG”, the figure is 9110 fluorescence intensity (a.u.). As to “TGCACTCCACCGCACATAGACCGGACGTATGCTCTACACTCGGAGTCACCTAGTGCAG”, the binding signal is 9070 fluorescence intensity (a.u.). Consider “CTACCACTGTCCGCCATTACATTACAAACCACACTGCGCGCGGAGTCACCTAGTGCAG”, for which the binding signal was 11400 fluorescence intensity (a.u.).

“GACAATCCGACCTGTAATCCACCCGACTATTGTTGGTTGTCGGAGTCACCTAGTGCAG”: the binding signal was 8280 fluorescence intensity (a.u.).
